Measured data: PubChem BioAssay AID504784 (Drosophila RNAi Screening Center, 2011)

Aim: 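Genome-wide knock-down for genes giving too much or too little stored lipid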 (primary screen)
Cells: Drosophila Kc167 embryonic cells
Reagents: long dsRNA against Drosophila genes, about 250 ng dsRNA per well
Timing: 4 days
Conditions: cells fed 400 µM oleic acid bound to BSA
Read-out: 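Microscope images give a droplet-to-nucleus area ratio, taken as log and converted to a screen-wide B-score; higher values mean greater lipid storage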
Direction: droplet/nuclear area B-score: higher = more stored lipid (overstorage)
In all, the deposit lists about 17,000 reagents; below is a random part of those that have a named target and a result. 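Each column is one replicate's B-score; the combined score over replicates was not deposited, so single values may mislead.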 The numbers tell different reagents against one gene apart. A plus sign joins genes that one reagent is predicted to hit. Not all columns of the deposit are shown. Reagent sequences are not shown.

What is on record for CG11275?
droplet/nuclear area B-score, replicate 1: -1.49

With CG13465, what does the deposit list?
droplet/nuclear area B-score, replicate 1: -0.5

Which result is listed for ytr (yantar) #1?
droplet/nuclear area B-score, replicate 1: 0.269

How did the screen score ytr (yantar) #2?
droplet/nuclear area B-score, replicate 1: 0.0256

With Sb (Stubble), what does the deposit list?
droplet/nuclear area B-score, replicate 1: -1.99

What did the screen give for TwdlJ (TweedleJ)?
droplet/nuclear area B-score, replicate 1: 1.73

With Grip128, what was measured?
droplet/nuclear area B-score, replicate 1: -0.251

Which result is listed for CG12224?
droplet/nuclear area B-score, replicate 1: 0.598

For MTPAP (mitochondrial poly(A) polymerase), what does the deposit list?
droplet/nuclear area B-score, replicate 1: 1.79

What is on record for Cp18 (Chorion protein 18)?
droplet/nuclear area B-score, replicate 1: -0.00864

What is on record for Cp7Fc (Chorion protein c at 7F)?
droplet/nuclear area B-score, replicate 1: -0.0377

With CG7443, how do the results read?
droplet/nuclear area B-score, replicate 1: -0.502

What did the screen give for Ac13E (Adenylyl cyclase 13E)?
droplet/nuclear area B-score, replicate 1: -1.8

Which result is listed for smo (smoothened)?
droplet/nuclear area B-score, replicate 1: 0.041

With ppk27 (pickpocket 27) #1, what does the deposit list?
droplet/nuclear area B-score, replicate 1: 1.05

With ppk27 (pickpocket 27) #2, what does the deposit list?
droplet/nuclear area B-score, replicate 1: 2.98

Laid out differently: entries from further up.
{"gene knocked down":"CG11275","reagent no.":1,"droplet/nuclear area B-score, replicate 1":-1.49}
{"gene knocked down":"CG13465","reagent no.":1,"droplet/nuclear area B-score, replicate 1":-0.5}
{"gene knocked down":"ytr (yantar)","reagent no.":1,"droplet/nuclear area B-score, replicate 1":0.269}

Additional reagents:
What did the screen give for sll (slalom)?
droplet/nuclear area B-score, replicate 1: -0.227

For CG17059, how do the results read?
droplet/nuclear area B-score, replicate 1: 0.00107

What did the screen give for CG15580?
droplet/nuclear area B-score, replicate 1: -1.58

How did the screen score Rab9Db + Rab9D + Rab9E?
droplet/nuclear area B-score, replicate 1: -1.59

With ph-d (polyhomeotic distal) #1, how do the results read?
droplet/nuclear area B-score, replicate 1: 1.53

For ph-d (polyhomeotic distal) #2, what was measured?
droplet/nuclear area B-score, replicate 1: -1.06

What is on record for Cth (Cystathionine gamma-lyase)?
droplet/nuclear area B-score, replicate 1: 3.33

With Pex12 (Peroxin 12), what was measured?
droplet/nuclear area B-score, replicate 1: 1.41

For Rph (Rabphilin), what does the deposit list?
droplet/nuclear area B-score, replicate 1: 0.215

What did the screen give for Miro (Mitochondrial Rho)?
droplet/nuclear area B-score, replicate 1: -0.507

For Pka-C3 (Protein kinase, cAMP-dependent, catalytic subunit 3) #1, what does the deposit list?
droplet/nuclear area B-score, replicate 1: 0.684

Which result is listed for Pka-C3 (Protein kinase, cAMP-dependent, catalytic subunit 3) #2?
droplet/nuclear area B-score, replicate 1: -2.03

What did the screen give for CG17048?
droplet/nuclear area B-score, replicate 1: -1.2

What is on record for kat-60L1 (katanin p60-like 1)?
droplet/nuclear area B-score, replicate 1: -0.653

With CG10747, what was measured?
droplet/nuclear area B-score, replicate 1: -2.53

What is on record for CG7483 #1?
droplet/nuclear area B-score, replicate 1: -0.479

What is on record for CG7483 #2?
droplet/nuclear area B-score, replicate 1: -0.697

For CG5890, how do the results read?
droplet/nuclear area B-score, replicate 1: -1.33

How did the screen score S-Lap2 (Sperm-Leucylaminopeptidase 2)?
droplet/nuclear area B-score, replicate 1: -0.645

With CG11164, what does the deposit list?
droplet/nuclear area B-score, replicate 1: 0.131

With PhKgamma (Phosphorylase kinase gamma), what was measured?
droplet/nuclear area B-score, replicate 1: -1.15

What did the screen give for mib1 (mind bomb 1)?
droplet/nuclear area B-score, replicate 1: -1.02

For twit (target of wit), how do the results read?
droplet/nuclear area B-score, replicate 1: 0.628

With dpr4 (defective proboscis extension response 4) #1, what does the deposit list?
droplet/nuclear area B-score, replicate 1: -0.0142

What did the screen give for dpr4 (defective proboscis extension response 4) #2?
droplet/nuclear area B-score, replicate 1: 0.877
